Test results from PubChem BioAssay AID504444 (National Center for Advancing Translational Sciences (NCATS), 2011).
The campaign covered roughly 360,000 compounds. About 7,500 (2.1%) were called active. Inconclusive results, whose numbers are uncertain, are shown with a selection of clear calls. Calls come from the whole dose curve; as a rule, active = well fitted inhibition curve with a large enough effect; inconclusive = small, poorly fitted or top-dose-only effect, or effect the other way; inactive = flat fitted curve, though single readings scatter. Potencies beside an inconclusive call are fits to weak or partial responses and may not hold up.

assay: Nrf2 qHTS screen for inhibitors; conditions: A549 ARE-Fluc reporter, luciferase luminescence, 18-24 h; activity change, negative = inhibition: at 46 µM (top of the series); note: nearly all actives have a fitted effect of over 60% in size
In short: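 Two sequential reads on A549 ARE_Fluc cells exposed to compound for 18-24 h: a CellTiter-Fluor fluorescence read for viability, then a luciferase luminescence read for Nrf2/ARE activity.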
% is set by controls: 0 for no effect and ±100 for the full control effect; potency is the fitted concentration of half-maximal effect.

SMILES	Potency	activity change, negative = inhibition
Cc1ccc(CNC(=O)c2ccc3nc(SCc4ccc(F)cc4)[nH]c3c2)cc1	inconclusive: 14.6 µM [falling, partial curve, poor fit]	
Cc1cccc2cccnc12	inconclusive: 0.082 µM [activator, full curve, poor fit]	
COc1ccc2c(c1)NC(C)(C)C=C2C		inactive: -18.8%
CC1C(=O)N(S(=O)(=O)c2ccc([N+](=O)[O-])cc2)[C@H]1c1ccc2ccccc2c1 (stereo partly specified)		inactive: 6.35%
Cc1ccsc1/C=N/NC(=O)c1nnn(-c2nonc2N)c1-c1ccccc1	inconclusive: 18.4 µM [falling, partial curve, poor fit]	
CCc1cccc(NC(=O)C(Cc2ccccc2)n2cccc2)c1 (stereo unspecified)	active: 20.6 µM	
CCOc1cc(/C=C\[N+](=O)[O-])ccc1OCC(=O)Nc1ccccc1C	inconclusive: 29.1 µM [falling, single point]	
CC1=C(C(=O)Nc2ccc(F)cc2F)C2(CCN(C(C)C)CC2)OC1=O	inconclusive: 29.1 µM [activator, single point]	
CCC(=O)NN1CCN(c2ccncc2S(=O)(=O)N2CCCCC2)CC1	inconclusive: 0.461 µM [falling, full curve, poor fit]	
CCCOc1cccc(C(=O)Nc2cc(-c3ccccc3)no2)c1	inconclusive: 2.31 µM [activator, full curve]	
CC(=O)Nc1ccccc1-c1nc2ccccc2n(CC(=O)Nc2cccc(C(F)(F)F)c2)c1=O		inactive: 16.8%
O=c1cc(N2CCCCC2)c(-c2ccccc2)nn1Cc1cccc(F)c1	inconclusive: 25.9 µM [falling, single point]	
CCCCC(C(=O)NC1CCCC1)N(Cc1ccco1)C(=O)Cn1nnc(-c2ccc(F)cc2)n1 (stereo unspecified)	inconclusive: 29.1 µM [falling, single point]	
C[C@@H]1CN([C@H](C)CO)C(=O)c2cc(NS(=O)(=O)c3ccc(F)cc3)ccc2O[C@@H]1CN(C)Cc1ccc(Cl)c(Cl)c1	active: 18.4 µM	
COc1ccc(/C=C/C(=O)Nc2nc(-c3cccs3)ns2)cc1OC	inconclusive: 20.6 µM [falling, single point]	
OC1CCN(C(=S)Nc2ccc(Oc3ccccc3)cc2)CC1	inconclusive: 29.1 µM [falling, single point]	
COc1ccc(S(=O)(=O)C(C#N)c2nc3ccccc3nc2N2CCCC(C)C2)cc1 (stereo unspecified)	inconclusive: 29.1 µM [falling, single point]	
CC(C)C(NC(=O)c1ccccc1F)C(=O)Nc1ccc2c(c1)OCO2 (stereo unspecified)	inconclusive: 0.082 µM [falling, full curve, poor fit]	
O=C(NCCC1CCCCN1S(=O)(=O)c1ccc(F)cc1)C(=O)NCC1CCCO1 (stereo unspecified)		inactive: -1.29%
Cc1ccc(CO)cc1Nc1ncnc2onc(-c3ccc(F)cc3)c12		inactive: 3.01% [at 9.27 µM]
Cc1nc2ccc(NS(=O)(=O)c3ccc(C)c(C)c3)cc2s1	inconclusive: 14.6 µM [falling, partial curve, poor fit]	
CCS(=O)(=O)N1CC(=O)N(c2ccc(Cl)cc2)C(C)(C(=O)NC2CCCCC2)C1 (stereo unspecified)	inconclusive: 25.9 µM [activator, single point]	

Shown field by field: entries from further up.
O=C(NCCC1CCCCN1S(=O)(=O)c1ccc(F)cc1)C(=O)NCC1CCCO1 (stereo unspecified)
  activity change, negative = inhibition: inactive: -1.29%
Cc1ccc(CO)cc1Nc1ncnc2onc(-c3ccc(F)cc3)c12
  activity change, negative = inhibition: inactive: 3.01% [at 9.27 µM]
Cc1nc2ccc(NS(=O)(=O)c3ccc(C)c(C)c3)cc2s1
  Potency: inconclusive: 14.6 µM [falling, partial curve, poor fit]

Additional structures follow.

SMILES	Potency	activity change, negative = inhibition
Cc1ccc2oc3c(c(=O)c2c1)C(c1cccc(Br)c1)N(Cc1ccco1)C3=O (stereo unspecified)	inconclusive: 3.66 µM [falling, full curve, poor fit]	
N#C/C(=C\Nc1ccc2c(c1)OCCO2)c1nc2ccccc2[nH]1	inconclusive: 29.1 µM [falling, single point]	
O=C(CCCc1nc(-c2ccc(Cl)cc2)no1)Nc1cccnc1	active: 10.3 µM	
O=C(Nc1ccc(Br)cn1)c1ccc([N+](=O)[O-])cc1Cl	inconclusive: 8.2 µM [activator, partial curve]	
O=[N+]([O-])c1cc(-c2nc(-c3ccccc3)no2)ccc1NC1CCCCC1	inconclusive: 29.1 µM [falling, single point]	
Cc1cc(S(=O)(=O)N2CCCC(N3CCOCC3)C2)c(C)cc1Cl (stereo unspecified)	inconclusive: 23.1 µM [falling, single point]	
Cc1ccc(S(=O)(=O)N(CC(=O)NCc2cccs2)c2ccccc2)cc1		inactive: -12.2%
CCOC(=O)C(=Cc1ccc(-c2ccsc2C(=O)OC)o1)C(=O)OCC		inactive: -23.8%
O=C(N/N=C/c1cccc(Oc2ccccc2)c1)c1ccncc1	inconclusive: 25.9 µM [activator, partial curve, poor fit]	
CC1CCN(C(=O)COC(=O)c2ccccc2C(=O)c2ccccc2)CC1	inconclusive: 18.4 µM [activator, partial curve, poor fit]	
O=C(NC1CCCCCC1)c1cc(S(=O)(=O)N2CCOCC2)ccc1N1CCCCC1	inconclusive: 8.2 µM [falling, partial curve, poor fit]	
COc1ccc(-n2nc3cc(C)c(NC(C)=O)cc3n2)cc1		inactive: -28.4%
O=C1CCC(C(=O)N2CCCC(C(=O)c3ccc4ccccc4c3)C2)=NN1 (stereo unspecified)	inconclusive: 14.6 µM [activator, partial curve]	
O=C(Nc1ncc2c(n1)-c1ccccc1CC2)c1cccs1	inconclusive: 11.6 µM [activator, partial curve]	
COc1ccc(-c2nc(C#N)c(N3CCCCCC3)o2)cc1OC	inconclusive: 5.8 µM [falling, full curve, poor fit]	
O=C(c1ccco1)N1CCN(C(=O)c2cc(-c3ccccc3F)no2)CC1	inconclusive: 29.1 µM [activator, single point]	
Cc1sc(NC(=O)CSc2nnc(CCNC(=O)c3cccs3)n2C)nc1-c1ccccc1	inconclusive: 2.59 µM [falling, single point]	
COc1ccc(/C=C/C(=O)Nc2ccc3nc(N4CCC(C)CC4)cc(C)c3c2)cc1		inactive: 9.85% [at 9.27 µM]
CCN(c1ccccc1)S(=O)(=O)c1c(-c2ccc(C)cc2)csc1C(=O)OC	inconclusive: 29.1 µM [falling, single point]	
CSc1cccc(NC(=O)c2cnn3ccccc23)c1	inconclusive: 6.51 µM [activator, partial curve]	
CCOC(=O)c1sc(-c2cccs2)nc1C	inconclusive: 23.1 µM [activator, single point]	
Nc1nc2ccc(-c3nc4ccccc4o3)cc2s1	inconclusive: 2.06 µM [activator, full curve]	

SMILES	Potency	activity change, negative = inhibition
Cc1oc(C(C)(C)C)cc1C(=O)N1CCN(c2ccc(C(F)(F)F)cn2)CC1	inconclusive: 3.26 µM [falling, full curve]	
O=C(CSc1nc2ccccc2n1Cc1ccccc1)N/N=C/c1ccco1	active: 8.2 µM	
CN(C)S(=O)(=O)c1cc(NC(=O)CSc2ncc(C(F)(F)F)cc2Cl)ccc1Cl	inconclusive: 29.1 µM [falling, single point]	
Cc1ccc(/C=N\Nc2nc3ccc(Cl)cc3[nH]2)o1	inconclusive: 20.6 µM [activator, single point]	
CCc1cccc(C)c1NC(=O)CSc1nnc(CCCOc2ccc(Cl)cc2Cl)n1C	active: 16.4 µM	
O=C(O)c1ccccc1NC(=O)C1C2C=CC(C2)C1C(=O)O (stereo unspecified)	inconclusive: 20.6 µM [activator, partial curve, poor fit]	
CCCOc1ccc(/C=N/NC(=O)CN2CCCCC2)cc1OCC		inactive: -5.07%
O=C(COc1ccc(Cl)cc1)OCc1cc(=O)n2nc(C3CC3)sc2n1	inconclusive: 29.1 µM [activator, single point]	
Cc1ccc(S(=O)(=O)c2cc3c(=O)n4cccc(C)c4nc3n(CCc3ccccc3)c2=N)cc1C		inactive: 3.09%
CCOC(=O)C(NC(C)=O)C(=O)Nc1ccc(C(C)(C)C)cc1 (stereo unspecified)	inconclusive: 25.9 µM [activator, single point]	
C=C(C)COc1ccc2c(CC)cc(=O)oc2c1C		inactive: -18.9%
COc1ccc(NCc2nnc(SCC(=O)Nc3nc(-c4ccccc4)cs3)n2-c2ccccc2)cc1	inconclusive: 23.1 µM [falling, single point]	
COc1ccc(-c2nc3ccccc3s2)cc1NC(=O)c1ccc(F)cc1	inconclusive: 29.1 µM [falling, single point]	
C/C(=N\NC(=O)c1ccc([N+](=O)[O-])cc1Cl)c1ccccc1	inconclusive: 6.51 µM [activator, single point]	
CCn1cc(C2=NOC(C(=O)Nc3cc(C)nn3-c3ccccc3)C2)c(C)n1 (stereo unspecified)	inconclusive: 2.59 µM [activator, partial curve, poor fit]	
C#Cc1ccc(CN2CCC(C(=O)Nc3ccc(Oc4ccccc4)nc3)CC2)cc1	active: 18.4 µM	
CN(C(=O)CSc1nc(-c2ccc(F)cc2)cs1)C1CCS(=O)(=O)C1 (stereo unspecified)	inconclusive: 29.1 µM [falling, single point]	
Cc1ccc(-c2cc(C(=O)N/N=C/C=C/c3ccco3)c3ccccc3n2)cc1C	inconclusive: 3.66 µM [falling, full curve, poor fit]	
COCCNC(=O)/C(C#N)=C/C=C/c1ccccc1[N+](=O)[O-]		inactive: 2.87%
COc1ccc(NC(=O)c2ccc([N+](=O)[O-])o2)cc1		inactive: 27.7%
Cc1ccc(-c2nnc(Nc3ccc(C(=O)N(C)C)cc3)c3ccccc23)cc1S(=O)(=O)N(C)C	inconclusive: 11.6 µM [falling, partial curve]	
Cc1ccc(C(=O)c2oc3ccccc3c2NC(=O)c2cc(-c3ccccc3O)n[nH]2)cc1	inconclusive: 29.1 µM [falling, single point]	

An excerpt from above in order of length of the SMILES, descending:
SMILES	Potency	activity change, negative = inhibition
Cc1ccc(S(=O)(=O)c2cc3c(=O)n4cccc(C)c4nc3n(CCc3ccccc3)c2=N)cc1C		inactive: 3.09%
COc1ccc(NCc2nnc(SCC(=O)Nc3nc(-c4ccccc4)cs3)n2-c2ccccc2)cc1	inconclusive: 23.1 µM [falling, single point]	
CN(C(=O)CSc1nc(-c2ccc(F)cc2)cs1)C1CCS(=O)(=O)C1 (stereo unspecified)	inconclusive: 29.1 µM [falling, single point]	
